Data reported in paper PMC4545789.
These are yes or no findings as the source states them, for the method shown. In cells and extracts the contact can be indirect. Some results given as binding are weak or reduced against the parent protein; the word gives no strength.

Protein sequences, listed by entry. Tags and fused reporters are not part of them. Residues count along the entry.
UniProt P35869, residues 11-848: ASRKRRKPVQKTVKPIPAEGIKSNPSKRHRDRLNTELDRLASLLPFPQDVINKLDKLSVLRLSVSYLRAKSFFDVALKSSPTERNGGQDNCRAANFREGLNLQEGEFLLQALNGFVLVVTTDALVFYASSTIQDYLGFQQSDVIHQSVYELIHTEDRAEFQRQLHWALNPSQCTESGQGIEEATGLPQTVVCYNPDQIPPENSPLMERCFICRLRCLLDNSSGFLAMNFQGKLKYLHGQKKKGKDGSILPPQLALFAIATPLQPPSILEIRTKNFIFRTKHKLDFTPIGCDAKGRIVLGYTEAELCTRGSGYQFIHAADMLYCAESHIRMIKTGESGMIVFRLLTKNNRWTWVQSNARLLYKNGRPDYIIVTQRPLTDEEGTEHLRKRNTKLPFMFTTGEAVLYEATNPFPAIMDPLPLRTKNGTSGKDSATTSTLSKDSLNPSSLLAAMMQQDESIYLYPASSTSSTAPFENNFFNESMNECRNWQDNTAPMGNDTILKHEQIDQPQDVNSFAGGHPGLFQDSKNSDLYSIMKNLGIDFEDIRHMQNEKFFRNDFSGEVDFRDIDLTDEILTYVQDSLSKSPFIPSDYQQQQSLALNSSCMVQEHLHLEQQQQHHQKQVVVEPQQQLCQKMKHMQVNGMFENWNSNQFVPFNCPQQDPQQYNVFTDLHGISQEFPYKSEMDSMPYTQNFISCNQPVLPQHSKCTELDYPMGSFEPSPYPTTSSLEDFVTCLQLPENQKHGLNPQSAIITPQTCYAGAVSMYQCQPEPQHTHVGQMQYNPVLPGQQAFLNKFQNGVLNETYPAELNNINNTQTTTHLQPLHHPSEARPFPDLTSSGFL
UniProt Q13191: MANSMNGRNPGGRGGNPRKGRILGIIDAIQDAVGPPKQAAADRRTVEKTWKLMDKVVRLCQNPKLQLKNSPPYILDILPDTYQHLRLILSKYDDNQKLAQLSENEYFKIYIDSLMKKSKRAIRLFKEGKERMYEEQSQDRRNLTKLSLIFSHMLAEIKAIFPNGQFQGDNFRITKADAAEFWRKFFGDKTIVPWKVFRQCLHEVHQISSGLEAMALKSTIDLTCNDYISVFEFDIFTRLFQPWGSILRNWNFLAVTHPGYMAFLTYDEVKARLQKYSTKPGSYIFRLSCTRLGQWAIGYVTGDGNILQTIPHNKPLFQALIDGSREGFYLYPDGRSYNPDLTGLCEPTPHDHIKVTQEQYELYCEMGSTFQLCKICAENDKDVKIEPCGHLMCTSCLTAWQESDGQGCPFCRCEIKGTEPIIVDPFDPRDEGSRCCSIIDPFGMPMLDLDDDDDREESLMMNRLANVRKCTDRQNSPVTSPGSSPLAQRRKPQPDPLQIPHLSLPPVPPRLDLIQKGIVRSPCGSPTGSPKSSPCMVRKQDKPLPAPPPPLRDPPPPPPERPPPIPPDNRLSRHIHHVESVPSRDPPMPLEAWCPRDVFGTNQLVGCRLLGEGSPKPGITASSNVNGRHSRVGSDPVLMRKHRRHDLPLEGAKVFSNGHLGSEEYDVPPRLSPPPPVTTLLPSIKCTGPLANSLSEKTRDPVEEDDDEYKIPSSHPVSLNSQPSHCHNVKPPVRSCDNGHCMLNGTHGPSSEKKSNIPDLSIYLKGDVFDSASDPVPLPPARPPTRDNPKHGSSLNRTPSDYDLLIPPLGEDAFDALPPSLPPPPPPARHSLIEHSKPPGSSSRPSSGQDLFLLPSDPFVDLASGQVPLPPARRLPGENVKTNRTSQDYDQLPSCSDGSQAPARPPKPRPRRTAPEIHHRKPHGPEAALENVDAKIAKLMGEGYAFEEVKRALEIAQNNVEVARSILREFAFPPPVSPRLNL

Target: aryl hydrocarbon receptor (AhR) (human (endogenous in HL-60)) (UniProt P35869)
Assay: FRET or BRET; flow cytometry FRET in HL-60 cells fixed with 2% paraformaldehyde and permeabilized with ice cold methanol; endogenous proteins labelled with mouse and rabbit primary antibodies and Alexa 488 (donor) and Alexa 594 (acceptor) secondary antibodies; cells untreated or treated with 1 uM RA, 100 nM FICZ, 1 uM alpha-NF, 1 uM beta-NF as indicated; isotype controls included

## Cbl-b (from UniProt Q13191 1-982)
  binding: binds
